Results are given in words; binding and its absence hold for the method and conditions named. For part of these data: Binding seen in cells or lysates may run through a third protein. Some entries that bind do so weakly or less than the wild type. For part of these data: Where a sequence is shown, tags or fusion partners need not be part of it.
Assays:
[1] = biological target: FLAG-Gal3 (in HepG2 cells) (UniProt P17931); assay: co-IP; lysates of HepG2 cells transfected with FLAG-Gal3, anti-FLAG precipitation, immunoblot of the endogenous proteins
[2] = biological target: FLAG-tagged galectin-3 (UniProt P17931); assay: co-IP; lysates of HEK-293T cells transfected with a FLAG-tagged galectin (FLAG-Gal3, FLAG-Gal2, FLAG-Gal4), anti-FLAG M2 affinity gel, immunoblot of the endogenous proteins; lysis buffer 50 mM Tris-HCl pH 8.0, 150 mM NaCl, 0.5% NP40; for FLAG-Gal3 also after starvation of amino acids and glucose for 1 h and LPS (1 ug/ml) for 5 h (binding to RagA/RagC and p14/p18 enhanced, still none to GATOR1 or GATOR2)
[3] = biological target: FLAG-tagged galectin-3 (UniProt P17931); assay: SEC; anti-FLAG affinity eluate of HEK-293T cells stably expressing FLAG-Gal3 fractionated by FPLC on a Superose 6 column (dithiothreitol-containing buffer, 0.5 ml/min); immunoblot of the fractions
[4] = biological target: galectin-3 (human (endogenous in HEK-293T)) (UniProt P17931); assay: co-IP; endogenous proteins of HEK-293T lysate; precipitation with anti-galectin-3 and blots for the partners, or precipitation with antibodies against the partners and blot for galectin-3; protein G agarose beads, 4 C
[5] = biological target: galectin-3 (co-expressed from a plasmid with RagA/RagC and p14/p18) (UniProt P17931); assay: co-IP; HEK-293T cells co-transfected with plasmids for galectin-3, RagA/RagC (wild type or mutants) and p14/p18; anti-FLAG precipitation, immunoblot; the experiments with Rag mutants after LPS (1 ug/ml) for 6 h
[6] = biological target: T1, FLAG-galectin-4 (UniProt P56470); assay: co-IP; lysates of HEK-293T cells transfected with a FLAG-tagged galectin (FLAG-Gal3, FLAG-Gal2, FLAG-Gal4), anti-FLAG M2 affinity gel, immunoblot of the endogenous proteins; lysis buffer 50 mM Tris-HCl pH 8.0, 150 mM NaCl, 0.5% NP40; for FLAG-Gal3 also after starvation of amino acids and glucose for 1 h and LPS (1 ug/ml) for 5 h (binding to RagA/RagC and p14/p18 enhanced, still none to GATOR1 or GATOR2)
T1 sequence: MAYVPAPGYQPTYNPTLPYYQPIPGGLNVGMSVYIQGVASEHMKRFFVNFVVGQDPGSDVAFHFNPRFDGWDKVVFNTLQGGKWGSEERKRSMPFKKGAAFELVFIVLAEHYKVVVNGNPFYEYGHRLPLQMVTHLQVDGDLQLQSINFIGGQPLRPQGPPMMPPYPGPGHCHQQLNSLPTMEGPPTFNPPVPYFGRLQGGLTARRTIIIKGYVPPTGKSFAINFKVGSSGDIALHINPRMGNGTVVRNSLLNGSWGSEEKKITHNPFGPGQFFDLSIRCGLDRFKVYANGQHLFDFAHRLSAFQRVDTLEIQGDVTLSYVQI

Protein sequences, listed by entry. Tags and fused reporters are not part of them.
UniProt P17931: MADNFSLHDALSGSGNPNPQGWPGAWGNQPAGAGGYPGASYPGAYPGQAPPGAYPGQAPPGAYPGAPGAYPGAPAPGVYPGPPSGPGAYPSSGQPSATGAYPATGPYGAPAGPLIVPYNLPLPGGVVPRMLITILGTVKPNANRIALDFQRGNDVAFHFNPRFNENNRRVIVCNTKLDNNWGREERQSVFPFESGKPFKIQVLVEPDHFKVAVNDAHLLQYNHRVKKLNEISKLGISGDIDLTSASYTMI
UniProt P21281: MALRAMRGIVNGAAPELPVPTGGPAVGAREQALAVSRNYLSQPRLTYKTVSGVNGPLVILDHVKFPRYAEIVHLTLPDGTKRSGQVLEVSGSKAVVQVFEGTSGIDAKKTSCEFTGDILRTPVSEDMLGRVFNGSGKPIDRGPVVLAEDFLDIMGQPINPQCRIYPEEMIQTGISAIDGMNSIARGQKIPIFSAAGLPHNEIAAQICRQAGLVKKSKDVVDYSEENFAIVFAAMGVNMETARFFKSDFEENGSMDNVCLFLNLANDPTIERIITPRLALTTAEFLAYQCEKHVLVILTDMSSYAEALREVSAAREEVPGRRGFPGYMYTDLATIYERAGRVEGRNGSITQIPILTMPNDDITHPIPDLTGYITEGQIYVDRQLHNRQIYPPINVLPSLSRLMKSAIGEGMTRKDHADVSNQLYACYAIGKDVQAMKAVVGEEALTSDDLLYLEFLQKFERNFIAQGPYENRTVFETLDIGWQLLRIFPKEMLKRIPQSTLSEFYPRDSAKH

[7] = biological target: RagC (human (endogenous in HEK-293T)) (UniProt Q9HB90); assay: co-IP; endogenous proteins of HEK-293T lysate; precipitation with anti-galectin-3 and blots for the partners, or precipitation with antibodies against the partners and blot for galectin-3; protein G agarose beads, 4 C
[8] = biological target: p14 (human (endogenous in HEK-293T)) (UniProt Q9Y2Q5); assay: as above
[9] = biological target: p18 (human (endogenous in HEK-293T)) (UniProt Q6IAA8); assay: as above
[10] = biological target: GST-galectin-3 (UniProt P17931); assay: pull-down; about 5 ug GST fusion protein on glutathione-Sepharose beads with 5-8 ul in vitro transcribed/translated product; 75 mM NaCl, 50 mM HEPES pH 7.9, 4 C, 2 h; western blot; only the target purified
[11] = biological target: GST-fused p14 (UniProt Q9Y2Q5); assay: as above
[12] = biological target: GST-fused RagC (UniProt Q9HB90); assay: as above
[13] = biological target: GST-fused p18 (UniProt Q6IAA8); assay: as above

Substance: p14 (in HepG2 cells) (from UniProt Q9Y2Q5 1-125)
- binding [1]: binds

Substance: p14 (from UniProt Q9Y2Q5 1-125)
- binding [2]: binds
- binding [3]: binds
- binding [4]: binds

Substance: RagC (co-expressed from a plasmid) (from UniProt Q9HB90 1-399)
- binding [5]: binds

Substance: ATP6V1B2 (from UniProt P21281 1-511)
- binding [6]: binds

Substance: RagC^S75N (from UniProt Q9HB90 1-399)
- binding [5]: binds

Substance: galectin-3 (from UniProt P17931 1-250)
- binding [7]: binds
- binding [8]: binds
- binding [9]: binds

Substance: RagA (from UniProt Q7L523 1-313) (other; other documents disagree on this pair)
- binding [2]: binds
- binding [3]: binds
- binding [4]: binds

Substance: in vitro transcribed/translated RagA (from UniProt Q7L523 1-313) (other; other documents disagree on this pair)
- binding [10]: binds

Substance: in vitro transcribed/translated RagC (from UniProt Q9HB90 1-399)
- binding [10]: binds

Substance: in vitro transcribed/translated galectin-3 (from UniProt P17931 1-250)
- binding [11]: binds
- binding [12]: binds
- binding [13]: binds

Substance: in vitro transcribed/translated p14 (from UniProt Q9Y2Q5 1-125)
- binding [10]: binds

Substance: RagA (co-expressed from a plasmid) (from UniProt Q7L523 1-313) (other; other documents disagree on this pair)
- binding [5]: binds

Substance: RagC (from UniProt Q9HB90 1-399)
- binding [2]: binds
- binding [3]: binds
- binding [4]: binds

Substance: RagA^Q66L (from UniProt Q7L523 1-313)
- binding [5]: binds

Substance: RagA (in HepG2 cells) (from UniProt Q7L523 1-313) (other; other documents disagree on this pair)
- binding [1]: binds

Substance: RagC (in HepG2 cells) (from UniProt Q9HB90 1-399)
- binding [1]: binds

Substance: p14 (co-expressed from a plasmid) (from UniProt Q9Y2Q5 1-125)
- binding [5]: binds

— article PMC9732310
